This is an account of results in PMC7819943, “Rice protein-binding microarrays: a tool to detect cis-acting elements near promoter regions in rice”.

Chains of the proteins cited; added tags and fusions are not shown.
UniProt Q0JBA9, entry or part of it: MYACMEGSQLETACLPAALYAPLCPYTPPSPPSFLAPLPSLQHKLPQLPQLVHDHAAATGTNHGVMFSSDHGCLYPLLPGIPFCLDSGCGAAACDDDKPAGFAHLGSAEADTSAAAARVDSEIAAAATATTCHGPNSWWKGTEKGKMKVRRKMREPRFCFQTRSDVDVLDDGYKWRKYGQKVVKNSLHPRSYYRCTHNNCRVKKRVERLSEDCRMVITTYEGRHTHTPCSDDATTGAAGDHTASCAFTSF

The other results are listed elsewhere or left out.

For this test, the target named is OsWRKY34 (Oryza sativa, UniProt Q0JBA9 1-250). The test can be described thus: protein-binding microarray (RPBM); PBS, 2% BSA, 51.3 ng/ul salmon testes DNA, 50 uM zinc acetate, 200 nM TF, 25 C, 1 h; high values mean tight binding. The note with it: protein: recombinant; tags: N-terminal polyhistidine and DsRed monomer fusion (pET32a); label: CyDye5-dUTP incorporated in the synthesized complementary strand; 3' TTTTT single-stranded linker to array surface; dsDNA, one strand shown. The procedure, abridged:
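Ni–NTA purification followed expression in E. coli BL21-CodonPlus of transcription factors fused N-terminally to a polyhistidine tag and DsRed. At 200 nM in PBS with 2% BSA, salmon testes DNA and 50 µM zinc acetate, the protein was incubated for 1 h at 25 °C with a custom Agilent array that had been primer-extended with Cy5-dUTP and blocked with 2% BSA. After washing, the array was read on an Axon 4000B scanner. The binding signal is per-feature fluorescence intensity in arbitrary units.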
“GCCTTGCTCTCTCACCGACGAGGTCACCGCCGCTTGTCTCCGGAGTCACCTAGTGCAG”: the binding signal was 8540 fluorescence intensity (a.u.).

As to “TTTCTTTTATTTTGTCTCGTTTCATGCAGGATGGCTGGACCGGAGTCACCTAGTGCAG”, the binding signal was 9510 fluorescence intensity (a.u.). Consider “AGGAAAACACTTAGATGGGCCGGATTACTTATCGAAATTTCGGAGTCACCTAGTGCAG”, for which the binding signal was 8360 fluorescence intensity (a.u.).

For the sequence “GTCACACATCCACGTCGCCGGCCTGCATTCGCGCCGCCCCCGGAGTCACCTAGTGCAG”, the binding signal is 12100 fluorescence intensity (a.u.). Then “CTCTATGTGATGGATTATTCTTTGTTGGCAAATTGTCATTCGGAGTCACCTAGTGCAG”, with 9260 fluorescence intensity (a.u.). For the sequence “CCAACTGGCCAAATTCCGGTTGCAACGCACGCATTTCCACCGGAGTCACCTAGTGCAG”, the binding signal is 10100 fluorescence intensity (a.u.).

On to “CGTCGCCTCACCTCGCGCCTCCGCTACTACTGCTTGTCTGCGGAGTCACCTAGTGCAG”, for which the binding signal is 8930 fluorescence intensity (a.u.). Then “GGGTTTGTTATGCTGCATGTCGTCGCACGCCGAGGTGGTCCGGAGTCACCTAGTGCAG”, with 10100 fluorescence intensity (a.u.); and “TCTGTGGGAGGAGAGGCGGGCCTCACGGGTGCGGCGGGTGCGGAGTCACCTAGTGCAG”, with 8850 fluorescence intensity (a.u.).

Take “GCTGTTCCTTCATTTCTCACCTAACCAAAGGACCTCATCGCGGAGTCACCTAGTGCAG”: the binding signal was 8570 fluorescence intensity (a.u.). Then “CGCAGTTGTGCATCAGGTTCTTCACTCCATATTCTCATCGCGGAGTCACCTAGTGCAG”, with 8760 fluorescence intensity (a.u.). As for “TGTTGTTTTTTTGCTAATATTTTTGTTGTTAATTTACTATCGGAGTCACCTAGTGCAG”, the binding signal is 10200 fluorescence intensity (a.u.).

Regarding “TTTTCCAGGGGCGAGGGCGGGGCATGGAAGTAACCCGCGGCGGAGTCACCTAGTGCAG”, the binding signal is 8520 fluorescence intensity (a.u.). In the case of “CCTTTTCTTCGCTCTGCGGCTACCTATCTCTTGTATTTATCGGAGTCACCTAGTGCAG”, the binding signal was 10100 ± 161 fluorescence intensity (a.u.). Take “CAACTTTCGCCGCATGGCCGCCGGTCGCCGGGGCGGCGTCCGGAGTCACCTAGTGCAG”: the binding signal is 8230 fluorescence intensity (a.u.). On to “TTCCGGAGCGTCTTTTGATCGTGGTTGGGTTTGTCTGAACCGGAGTCACCTAGTGCAG”, for which the binding signal was 8360 fluorescence intensity (a.u.).

In the case of “GTTGGATTTTATTTTTCTGGATTCGCATGGAACACTACAACGGAGTCACCTAGTGCAG”, the binding signal is 8660 fluorescence intensity (a.u.). “GGTTGTCACCTGTTCAGCTCGATGCACACTCTTGGCTGAGCGGAGTCACCTAGTGCAG”: the binding signal is 8760 fluorescence intensity (a.u.).

Turning to “TTTTCCATTCCCATTAGCCAAACACTCCTTTATCTTTCATCGGAGTCACCTAGTGCAG”, the binding signal is 12400 fluorescence intensity (a.u.). “GCTCTTTCTGTTGTGTGTTGTGATCTTTGTGGTTGCTTCACGGAGTCACCTAGTGCAG”: the binding signal was 8360 fluorescence intensity (a.u.). Under “TAGTGCTACCCAACCTGATCTCGCCTCAACCCCTACATATCGGAGTCACCTAGTGCAG” stands 8860 fluorescence intensity (a.u.); under “GGGATGCTCGTAGCCAGCGGTGCTCAGGGAGGTGGAGGGGCGGAGTCACCTAGTGCAG”, 12800 fluorescence intensity (a.u.); under “AACCGTTTCCACCCTGTAAACATTAGGTATGTTGCCCTCACGGAGTCACCTAGTGCAG”, 8140 fluorescence intensity (a.u.). For the sequence “GCCCTTAACGCGATCATGTAACAATGTATCTAAGCCTATACGGAGTCACCTAGTGCAG”, the binding signal is 8200 fluorescence intensity (a.u.).

In the case of “ACTGACCCACCGCCCCAAGCAGGCGCTCCTAGATCTTCCACGGAGTCACCTAGTGCAG”, the binding signal was 8680 fluorescence intensity (a.u.).

“CAGGCATATTCGGATCTTTTCTCGCGTTGACCCTGATTATCGGAGTCACCTAGTGCAG”: the binding signal was 13400 fluorescence intensity (a.u.). In the case of “TTTTCCGTCATATCGTTCTAATTTCTTCAAATTTTCATTTCGGAGTCACCTAGTGCAG”, the binding signal is 8600 fluorescence intensity (a.u.).

As for “CCCGCCACCGCGCAGCCGCCCGACGCCGTCGCCGCTCGTCCGGAGTCACCTAGTGCAG”, the binding signal was 8430 fluorescence intensity (a.u.). Turning to “AGGGGAGGGGCAGGGAGTTTAATTGGGACTTGGAAGGAGGCGGAGTCACCTAGTGCAG”, the binding signal was 10300 fluorescence intensity (a.u.).

“TCGCGTCCTCCACACCAACTTTATTGCGCCCTCCACACCACGGAGTCACCTAGTGCAG”: the binding signal is 9170 fluorescence intensity (a.u.). In the case of “TTAATACTTTATGCGTGACTTATCTTTTTAATTTTTTTCACGGAGTCACCTAGTGCAG”, the binding signal was 9760 fluorescence intensity (a.u.). Then “CTCCCCGCCACACCGACACCCTGCGCAGTTGCGCCGCCGCCGGAGTCACCTAGTGCAG”, with 8590 fluorescence intensity (a.u.). Regarding “CTCTACTTCCAATCTCATCTCTTTTCTTTTTTTTTCTCTTCGGAGTCACCTAGTGCAG”, the binding signal was 8560 fluorescence intensity (a.u.).

“GCCTGTGGTTTTTTTCCGCAAGGGTTTTTCACGTTAAATTCGGAGTCACCTAGTGCAG”: the binding signal is 8620 fluorescence intensity (a.u.).

In the case of “ACGACCCAACCAATCGACTCGCACCACCACCAGCAGCTCACGGAGTCACCTAGTGCAG”, the binding signal is 8600 fluorescence intensity (a.u.). For “AATGTTGTCCTGTCGGCTGCTTCTGCTCCAACGTCAAGTTCGGAGTCACCTAGTGCAG”, the binding signal is 8140 fluorescence intensity (a.u.). Then “GTCCTTCCGTTATCTGCAAATACATCCTATCTTAAGCTTTCGGAGTCACCTAGTGCAG”, with 8400 fluorescence intensity (a.u.); and “CACGCACATTTCTTTACTCGCCCGGAGAAGCTACCGCGCGCGGAGTCACCTAGTGCAG”, with 10300 fluorescence intensity (a.u.).

In the case of “CCAATTCACTCCACCATACTGTTGGCACCTATGATAGAACCGGAGTCACCTAGTGCAG”, the binding signal was 8180 fluorescence intensity (a.u.). For the sequence “AGCCCTCAGAACCTTCTCTTTCTTGTTCTTCTCTTCTTCCCGGAGTCACCTAGTGCAG”, the binding signal is 8720 fluorescence intensity (a.u.). Take “ATAGAGTTAGTCAAACTTAAAGTAGTTTGACTTGACTAAACGGAGTCACCTAGTGCAG”: the binding signal was 9560 fluorescence intensity (a.u.).

Turning to “GGTTTTTTTCGTCCACATTTAATGCTGCATACATATGTCTCGGAGTCACCTAGTGCAG”, the binding signal was 8760 fluorescence intensity (a.u.).
